Test results reported in patent US10513539B2 (Ruprecht-Karls-Universitat Heidelberg, priority 2011, dated 2019).

Experiment: general procedure: Fmoc solid-phase peptide synthesis; polystyrene copolymerized with polyoxyethylen; dicyclohexylcarbodiimide, hydroxybenzotriazole, benzotriazil-1-yl-oxytris (dimet)

With KNLSTSNPLGFFPDHQLDPy (SEQ ID NO:21) the final ms purity (conjugation step, Mass Spectrometry) was 97% or higher.

Substance “stearoyl-[K(DOTA)]3-NLSTSNPLGFFPDHQLDP-amide” has a conjugation yield (conjugation step) of 55%.

“stearoyl-[K(DOTA[Gd])]3-NLSTSNPLGFFPDHQLDP-amide” gave a step yield (late stage modification step) of 77%.
